Source: PMC8096952, “Similar pharmacokinetics and pharmacodynamics of a new biosimilar and reference insulin aspart in healthy Chinese males” (Scientific Reports, 2021)

Test system: C-peptide
Experiment: Serum C-peptide during euglycemic clamp (endogenous insulin secretion)
Assay type: in vivo
Details: healthy Chinese males, single 0.2 U/kg s.c., 10-h euglycemic clamp, ELISA; for Postdosing C-peptide: mean ± SD, N = 30
Protocol: The euglycemic clamp study was performed after inserting two catheters (an antecubital venous catheter for infusing 20% dextrose and a retrograde venous catheter in the hand heated in a box at 55–65℃ for measuring blood glucose). After collecting the basal blood glucose level [defined as the mean of the glucose measurement of several times (− 60, − 30, − 20, − 10 min) before dosing], the subjects received a 0.2 U/kg dose of NovoRapid or RD10046 by s.c. injection into a lifted abdominal skin-fold. Blood samples were obtained at the bedside for immediate determination of whole blood glucose concentrations and then monitored every 5 min from 0 to 240 min and every 10 min from 240 to 600 min after dosing. During the euglycemic clamp, the GIR was varied as necessary to maintain the blood glucose concentration within approximately ± 10% of the target level (defined as 0.28 mmol/L below the subject’s basal glucose level). The investigator made the GIR adjustment based on glucose measurements and experience. If the GIR fell to zero for at least 30 min, the clamp was discontinued. A 4-mL blood sample was collected at the following points for analysis of C-peptide and IAsp concentration: − 30, 0 (before dosing), 10, 20, 30, 40, 50, 60, 90, 120, 150, 180, 210, 240, 270, 300, 360, 420, 480 and 600 min. The baseline of C-peptide was defined as the mean value of two measurements at − 30 and 0 min.
Whole blood glucose concentrations were tested with a glucose analyzer (Biosen C_line GP+, Neckar Healthcare. Co. Ltd., Magdeburg, Germany) using an automated glucose oxidase technique. Serum C-peptide levels were analyzed using an ELISA (Cat. No. 80‐CPTHU‐E01.1; ALPCO, Salem, NH), and plasma IAsp concentrations were assessed by means of a validated, ultra-performance liquid chromatography-tandem mass spectrometry (UPLC-MS/MS) method at Covance Laboratories in Shanghai. The ranges of quantification were 20–3000 pmol/L for C-peptide and 0.2–10 ng/mL for IAsp.

| Substance | AUC0–10h of C-peptide | Postdosing C-peptide |
| --- | --- | --- |
| insulin aspart [NovoRapid] | 135 ± 9.77 nmol·min/L | 200 ± 63.0 pmol/L |
| insulin aspart [RD10046] | 139 ± 11.8 nmol·min/L | 206 ± 63.3 pmol/L |
